From article doi:10.1101/2025.07.04.663186 come the findings set out here.

Chains of the proteins cited; added tags and fusions are not shown.
UniProt Q96B97: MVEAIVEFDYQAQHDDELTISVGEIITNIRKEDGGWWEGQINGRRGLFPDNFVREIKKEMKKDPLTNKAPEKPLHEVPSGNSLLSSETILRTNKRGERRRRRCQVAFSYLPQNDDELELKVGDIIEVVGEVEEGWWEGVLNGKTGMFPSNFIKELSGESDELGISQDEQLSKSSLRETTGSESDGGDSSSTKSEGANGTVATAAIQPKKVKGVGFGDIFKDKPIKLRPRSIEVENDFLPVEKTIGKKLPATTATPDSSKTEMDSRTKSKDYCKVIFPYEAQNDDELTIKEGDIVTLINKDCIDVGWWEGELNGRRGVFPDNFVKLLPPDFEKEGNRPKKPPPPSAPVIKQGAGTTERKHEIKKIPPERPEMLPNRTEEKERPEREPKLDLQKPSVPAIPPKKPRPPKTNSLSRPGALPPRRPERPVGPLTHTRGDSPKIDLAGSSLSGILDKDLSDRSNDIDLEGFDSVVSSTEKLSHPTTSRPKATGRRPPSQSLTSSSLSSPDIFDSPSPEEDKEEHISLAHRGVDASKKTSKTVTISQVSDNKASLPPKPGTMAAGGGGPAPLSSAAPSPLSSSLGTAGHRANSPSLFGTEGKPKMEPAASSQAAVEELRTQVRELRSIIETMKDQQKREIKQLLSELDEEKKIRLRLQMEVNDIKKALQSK
UniProt Q96AC1: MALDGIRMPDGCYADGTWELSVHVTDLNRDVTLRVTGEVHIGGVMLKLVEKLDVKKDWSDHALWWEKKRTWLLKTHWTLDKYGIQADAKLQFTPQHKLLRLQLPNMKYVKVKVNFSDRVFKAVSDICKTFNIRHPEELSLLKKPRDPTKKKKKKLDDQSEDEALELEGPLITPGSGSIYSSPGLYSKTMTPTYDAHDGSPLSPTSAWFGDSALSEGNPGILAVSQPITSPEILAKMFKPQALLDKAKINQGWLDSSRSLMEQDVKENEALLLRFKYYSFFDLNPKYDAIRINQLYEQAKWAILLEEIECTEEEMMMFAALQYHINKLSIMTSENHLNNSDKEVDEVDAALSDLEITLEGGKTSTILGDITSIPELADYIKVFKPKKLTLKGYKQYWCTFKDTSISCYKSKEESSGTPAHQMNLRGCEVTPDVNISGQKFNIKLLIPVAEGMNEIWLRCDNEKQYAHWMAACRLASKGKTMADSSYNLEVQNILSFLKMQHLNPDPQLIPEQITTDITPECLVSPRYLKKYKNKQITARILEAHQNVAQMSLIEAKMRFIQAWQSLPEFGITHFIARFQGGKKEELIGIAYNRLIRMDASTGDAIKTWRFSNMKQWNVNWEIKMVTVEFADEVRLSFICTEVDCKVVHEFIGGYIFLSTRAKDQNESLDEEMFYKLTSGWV

Experiment in all cases: proximity labelling
Assay [1] addresses T1, myc-BirA*-MYO1E tail (aa 692-1108) (human) (UniProt Q12965).
T1 sequence: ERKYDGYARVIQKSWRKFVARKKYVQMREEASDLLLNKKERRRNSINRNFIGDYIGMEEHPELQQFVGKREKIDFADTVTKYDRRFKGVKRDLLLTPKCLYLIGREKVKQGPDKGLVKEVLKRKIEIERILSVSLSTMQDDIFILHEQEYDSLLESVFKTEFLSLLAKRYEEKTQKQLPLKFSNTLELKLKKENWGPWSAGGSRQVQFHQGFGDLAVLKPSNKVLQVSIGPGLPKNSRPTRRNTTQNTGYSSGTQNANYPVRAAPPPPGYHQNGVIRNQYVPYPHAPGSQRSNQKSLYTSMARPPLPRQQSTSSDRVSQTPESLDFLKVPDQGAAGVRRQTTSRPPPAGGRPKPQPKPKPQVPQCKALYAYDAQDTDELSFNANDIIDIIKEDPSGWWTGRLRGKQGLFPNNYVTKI

Assay [2] addresses T2, myc-BirA*-MYO1F tail (aa 692-1098) (human) (UniProt O00160).
T2 sequence: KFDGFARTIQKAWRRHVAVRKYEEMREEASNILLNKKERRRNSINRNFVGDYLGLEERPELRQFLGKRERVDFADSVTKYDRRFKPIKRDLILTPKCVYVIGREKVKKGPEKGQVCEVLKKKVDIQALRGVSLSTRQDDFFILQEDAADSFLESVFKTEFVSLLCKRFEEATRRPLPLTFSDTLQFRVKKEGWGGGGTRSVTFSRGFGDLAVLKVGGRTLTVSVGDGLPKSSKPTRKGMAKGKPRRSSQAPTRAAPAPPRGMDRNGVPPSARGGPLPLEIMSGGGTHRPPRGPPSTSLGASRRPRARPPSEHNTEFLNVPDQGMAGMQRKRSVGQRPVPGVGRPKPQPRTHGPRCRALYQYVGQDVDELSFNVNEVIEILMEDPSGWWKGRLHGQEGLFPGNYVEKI

The target of assay [3] is T3, myc-BirA*-MYO1F tail ΔPH (human) (UniProt O00160).
T3 sequence: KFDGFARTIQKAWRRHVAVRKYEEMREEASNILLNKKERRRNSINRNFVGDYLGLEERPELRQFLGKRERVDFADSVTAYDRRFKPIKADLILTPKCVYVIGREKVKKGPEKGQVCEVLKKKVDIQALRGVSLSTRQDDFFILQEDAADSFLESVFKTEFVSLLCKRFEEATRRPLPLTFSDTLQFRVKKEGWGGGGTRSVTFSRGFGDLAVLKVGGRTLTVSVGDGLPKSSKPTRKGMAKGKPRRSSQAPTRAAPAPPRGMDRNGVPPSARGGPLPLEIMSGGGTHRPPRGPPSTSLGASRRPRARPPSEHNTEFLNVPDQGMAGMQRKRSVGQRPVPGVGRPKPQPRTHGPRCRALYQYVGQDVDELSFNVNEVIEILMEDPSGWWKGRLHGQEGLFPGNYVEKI

The target in assay [4] is T1, myc-BirA*-MYO1E tail (aa 692-1108) (human). This is another data set of the same source.
Assay [5] deals with T2, myc-BirA*-MYO1F tail (aa 692-1098) (human). This is another data set of the same source.
The target in assay [6] is T3, myc-BirA*-MYO1F tail ΔPH (human). This is another data set of the same source.

Like-named read-outs stand apart in the source and are kept apart here. These are yes or no findings as the source states them, for the method shown. In cells and extracts the contact can be indirect. A yes stands for co-enrichment or nearness to the bait. Other partners may have been found. For some assays here: No binding means not detected with the bait. Sequences can lack the tags named with a protein.

For the molecule “SH3KBP1, endogenous in RPE (from UniProt Q96B97 1-665)”, the binding result in assay [1] is given as “no binding”.

Take “SH3 Domain Containing Kinase Binding Protein 1 (SH3KBP1), endogenous in U937 (from UniProt Q96B97 1-665)”: the binding result in assay [2] and in assay [3] was “binds” each time. For “FERMT2 (also known as kindlin-2) (from UniProt Q96AC1 1-680)”, the binding entry in assay [1] is reported as “binds”.

B1: CDC42EP1 (protein, UniProt Q00587 1-391)
chain: MPGPQGGRGAATMSLGKLSPVGWVSSSQGKRRLTADMISHPLGDFRHTMHVGRGGDVFGDTSFLSNHGGSSGSTHRSPRSFLAKKLQLVRRVGAPPRRMASPPAPSPAPPAISPIIKNAISLPQLNQAAYDSLVVGKLSFDSSPTSSTDGHSSYGLDSGFCTISRLPRSEKPHDRDRDGSFPSEPGLRRSDSLLSFRLDLDLGPSLLSELLGVMSLPEAPAAETPAPAANPPAPTANPTGPAANPPATTANPPAPAANPSAPAATPTGPAANPPAPAASSTPHGHCPNGVTAGLGPVAEVKSSPVGGGPRGPAGPALGRHWGAGWDGGHHYPEMDARQERVEVLPQARASWESLDEEWRAPQAGSRTPVPSTVQANTFEFADAEEDDEVKV
On to B1, for which the binding entry in assay [4] is on record as “binds”.

B2: SH3 Domain Binding Protein 2 (SH3BP2), endogenous in U937 (protein, UniProt P78314 1-561)
chain: MAAEEMHWPVPMKAIGAQNLLTMPGGVAKAGYLHKKGGTQLQLLKWPLRFVIIHKRCVYYFKSSTSASPQGAFSLSGYNRVMRAAEETTSNNVFPFKIIHISKKHRTWFFSASSEEERKSWMALLRREIGHFHEKKDLPLDTSDSSSDTDSFYGAVERPVDISLSPYPTDNEDYEHDDEDDSYLEPDSPEPGRLEDALMHPPAYPPPPVPTPRKPAFSDMPRAHSFTSKGPGPLLPPPPPKHGLPDVGLAAEDSKRDPLCPRRAEPCPRVPATPRRMSDPPLSTMPTAPGLRKPPCFRESASPSPEPWTPGHGACSTSSAAIMATATSRNCDKLKSFHLSPRGPPTSEPPPVPANKPKFLKIAEEDPPREAAMPGLFVPPVAPRPPALKLPVPEAMARPAVLPRPEKPQLPHLQRSPPDGQSFRSFSFEKPRQPSQADTGGDDSDEDYEKVPLPNSVFVNTTESCEVERLFKATSPRGEPQDGLYCIRNSSTKSGKVLVVWDETSNKVRNYRIFEKDSKFYLEGEVLFVSVGSMVEHYHTHVLPSHQSLLLRHPYGYTGPR
Take B2: the binding result in assay [5] and in assay [6] was “binds” in each case.

B3: SH3BP2, endogenous in RPE (protein, UniProt P78314 1-561)
chain: MAAEEMHWPVPMKAIGAQNLLTMPGGVAKAGYLHKKGGTQLQLLKWPLRFVIIHKRCVYYFKSSTSASPQGAFSLSGYNRVMRAAEETTSNNVFPFKIIHISKKHRTWFFSASSEEERKSWMALLRREIGHFHEKKDLPLDTSDSSSDTDSFYGAVERPVDISLSPYPTDNEDYEHDDEDDSYLEPDSPEPGRLEDALMHPPAYPPPPVPTPRKPAFSDMPRAHSFTSKGPGPLLPPPPPKHGLPDVGLAAEDSKRDPLCPRRAEPCPRVPATPRRMSDPPLSTMPTAPGLRKPPCFRESASPSPEPWTPGHGACSTSSAAIMATATSRNCDKLKSFHLSPRGPPTSEPPPVPANKPKFLKIAEEDPPREAAMPGLFVPPVAPRPPALKLPVPEAMARPAVLPRPEKPQLPHLQRSPPDGQSFRSFSFEKPRQPSQADTGGDDSDEDYEKVPLPNSVFVNTTESCEVERLFKATSPRGEPQDGLYCIRNSSTKSGKVLVVWDETSNKVRNYRIFEKDSKFYLEGEVLFVSVGSMVEHYHTHVLPSHQSLLLRHPYGYTGPR
As to B3, the binding entry in assay [4] was “no binding”.
